Measurements: the supplement of paper PMC12067093, “Discovery and optimisation of a covalent ligand for TRIM25 and its application to targeted protein ubiquitination” (Chemical Science, 2025)
Some of the results follow.

Amino acid sequences for entries named in this document (tags omitted). A change or cut given only in a name is not applied to a line headed by its entry.
UniProt P63010: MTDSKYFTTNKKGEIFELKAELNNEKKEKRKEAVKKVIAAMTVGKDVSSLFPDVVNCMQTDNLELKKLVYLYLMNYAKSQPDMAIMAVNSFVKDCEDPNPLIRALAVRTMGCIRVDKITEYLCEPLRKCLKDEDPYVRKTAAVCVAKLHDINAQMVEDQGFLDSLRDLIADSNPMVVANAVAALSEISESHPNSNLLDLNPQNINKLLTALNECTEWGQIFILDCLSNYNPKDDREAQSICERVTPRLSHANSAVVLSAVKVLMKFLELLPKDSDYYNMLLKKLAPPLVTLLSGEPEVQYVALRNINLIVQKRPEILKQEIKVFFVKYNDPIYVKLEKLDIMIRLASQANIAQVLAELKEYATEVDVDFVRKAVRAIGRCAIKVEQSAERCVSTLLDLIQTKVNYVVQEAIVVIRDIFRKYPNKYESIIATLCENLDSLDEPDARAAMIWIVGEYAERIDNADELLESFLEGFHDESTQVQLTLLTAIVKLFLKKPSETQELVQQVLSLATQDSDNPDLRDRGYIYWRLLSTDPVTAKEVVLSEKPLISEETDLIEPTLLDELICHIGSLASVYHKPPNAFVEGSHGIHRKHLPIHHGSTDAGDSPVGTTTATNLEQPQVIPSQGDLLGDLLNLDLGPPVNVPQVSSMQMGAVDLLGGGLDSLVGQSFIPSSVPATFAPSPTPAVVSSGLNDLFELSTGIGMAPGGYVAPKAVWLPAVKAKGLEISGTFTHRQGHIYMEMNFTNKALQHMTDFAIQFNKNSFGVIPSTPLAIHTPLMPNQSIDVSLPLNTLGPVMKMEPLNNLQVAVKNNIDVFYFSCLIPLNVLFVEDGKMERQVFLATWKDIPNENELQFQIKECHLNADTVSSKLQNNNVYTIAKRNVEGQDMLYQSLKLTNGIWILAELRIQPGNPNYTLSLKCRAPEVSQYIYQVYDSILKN
UniProt Q96CW1: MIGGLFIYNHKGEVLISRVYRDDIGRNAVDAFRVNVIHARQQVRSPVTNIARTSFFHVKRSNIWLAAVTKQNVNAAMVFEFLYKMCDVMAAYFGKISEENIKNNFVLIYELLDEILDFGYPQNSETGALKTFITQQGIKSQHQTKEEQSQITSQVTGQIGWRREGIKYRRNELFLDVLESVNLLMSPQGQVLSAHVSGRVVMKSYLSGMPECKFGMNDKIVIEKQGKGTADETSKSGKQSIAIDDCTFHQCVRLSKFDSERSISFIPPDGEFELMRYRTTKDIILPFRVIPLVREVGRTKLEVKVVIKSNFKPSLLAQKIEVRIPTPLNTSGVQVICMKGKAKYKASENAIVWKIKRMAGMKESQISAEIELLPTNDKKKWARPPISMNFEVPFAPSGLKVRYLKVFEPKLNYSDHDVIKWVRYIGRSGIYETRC
UniProt P09525: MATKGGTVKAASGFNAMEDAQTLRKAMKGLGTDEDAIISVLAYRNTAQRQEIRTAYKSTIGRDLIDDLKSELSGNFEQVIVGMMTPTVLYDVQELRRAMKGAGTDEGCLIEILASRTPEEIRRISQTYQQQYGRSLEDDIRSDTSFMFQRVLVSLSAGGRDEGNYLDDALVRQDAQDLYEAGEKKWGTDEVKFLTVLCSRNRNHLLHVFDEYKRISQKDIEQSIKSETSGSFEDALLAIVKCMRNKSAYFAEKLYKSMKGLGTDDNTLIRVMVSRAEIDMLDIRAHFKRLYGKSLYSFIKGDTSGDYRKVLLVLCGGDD
UniProt Q9Y6B7: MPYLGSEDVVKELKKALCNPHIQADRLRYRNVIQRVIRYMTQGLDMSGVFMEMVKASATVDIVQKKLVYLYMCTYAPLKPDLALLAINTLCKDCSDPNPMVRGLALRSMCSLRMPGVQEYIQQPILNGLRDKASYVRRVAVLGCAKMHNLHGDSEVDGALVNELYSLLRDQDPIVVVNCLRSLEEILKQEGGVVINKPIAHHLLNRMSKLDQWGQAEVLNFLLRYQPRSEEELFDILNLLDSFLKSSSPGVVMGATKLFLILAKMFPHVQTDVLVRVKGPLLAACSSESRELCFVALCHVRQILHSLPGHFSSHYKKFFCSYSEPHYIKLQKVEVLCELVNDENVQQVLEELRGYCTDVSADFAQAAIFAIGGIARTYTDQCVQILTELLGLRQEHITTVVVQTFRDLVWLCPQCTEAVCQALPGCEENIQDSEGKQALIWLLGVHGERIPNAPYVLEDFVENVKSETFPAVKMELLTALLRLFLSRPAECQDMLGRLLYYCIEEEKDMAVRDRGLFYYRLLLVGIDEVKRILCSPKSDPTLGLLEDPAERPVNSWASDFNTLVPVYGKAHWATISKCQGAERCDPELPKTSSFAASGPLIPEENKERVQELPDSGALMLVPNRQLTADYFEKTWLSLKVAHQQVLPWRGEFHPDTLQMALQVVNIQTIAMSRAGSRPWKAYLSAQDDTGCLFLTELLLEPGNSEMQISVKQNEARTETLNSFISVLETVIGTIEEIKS
UniProt P07355, whole entry, looked up: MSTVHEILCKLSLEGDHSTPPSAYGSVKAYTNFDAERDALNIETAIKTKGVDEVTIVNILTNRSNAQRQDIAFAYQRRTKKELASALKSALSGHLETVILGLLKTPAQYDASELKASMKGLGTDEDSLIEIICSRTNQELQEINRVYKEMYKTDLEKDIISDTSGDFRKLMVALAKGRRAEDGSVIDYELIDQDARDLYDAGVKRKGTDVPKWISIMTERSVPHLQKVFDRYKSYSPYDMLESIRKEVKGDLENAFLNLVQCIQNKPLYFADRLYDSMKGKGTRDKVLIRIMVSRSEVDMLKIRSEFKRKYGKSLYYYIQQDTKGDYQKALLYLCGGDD
UniProt Q96NW4, whole entry, looked up: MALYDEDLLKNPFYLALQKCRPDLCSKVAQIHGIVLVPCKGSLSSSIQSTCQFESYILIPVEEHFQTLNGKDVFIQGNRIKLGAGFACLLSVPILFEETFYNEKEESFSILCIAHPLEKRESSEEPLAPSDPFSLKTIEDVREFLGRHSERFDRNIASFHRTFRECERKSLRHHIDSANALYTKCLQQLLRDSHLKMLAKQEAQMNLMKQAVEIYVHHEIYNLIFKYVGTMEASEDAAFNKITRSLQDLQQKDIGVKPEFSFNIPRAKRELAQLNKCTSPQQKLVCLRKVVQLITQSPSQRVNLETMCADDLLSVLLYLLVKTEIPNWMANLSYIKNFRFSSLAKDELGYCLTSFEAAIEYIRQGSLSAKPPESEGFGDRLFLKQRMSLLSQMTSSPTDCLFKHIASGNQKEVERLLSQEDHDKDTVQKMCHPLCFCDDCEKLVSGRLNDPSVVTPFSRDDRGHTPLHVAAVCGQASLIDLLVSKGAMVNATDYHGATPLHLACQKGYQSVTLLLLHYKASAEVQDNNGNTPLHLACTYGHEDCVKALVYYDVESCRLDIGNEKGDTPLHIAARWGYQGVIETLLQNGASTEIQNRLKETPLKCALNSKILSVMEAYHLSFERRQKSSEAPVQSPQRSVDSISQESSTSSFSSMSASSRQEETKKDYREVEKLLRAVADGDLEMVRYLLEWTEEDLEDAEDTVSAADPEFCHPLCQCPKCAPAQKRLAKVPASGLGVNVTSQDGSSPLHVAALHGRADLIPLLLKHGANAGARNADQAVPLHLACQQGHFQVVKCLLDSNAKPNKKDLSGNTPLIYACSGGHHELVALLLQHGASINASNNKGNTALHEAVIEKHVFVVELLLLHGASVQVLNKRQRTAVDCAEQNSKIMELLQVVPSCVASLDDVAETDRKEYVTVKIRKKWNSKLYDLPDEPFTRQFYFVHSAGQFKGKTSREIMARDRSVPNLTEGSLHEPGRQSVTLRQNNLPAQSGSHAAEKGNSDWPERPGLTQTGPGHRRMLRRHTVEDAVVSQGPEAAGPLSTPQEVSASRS
UniProt O94973, whole entry, looked up: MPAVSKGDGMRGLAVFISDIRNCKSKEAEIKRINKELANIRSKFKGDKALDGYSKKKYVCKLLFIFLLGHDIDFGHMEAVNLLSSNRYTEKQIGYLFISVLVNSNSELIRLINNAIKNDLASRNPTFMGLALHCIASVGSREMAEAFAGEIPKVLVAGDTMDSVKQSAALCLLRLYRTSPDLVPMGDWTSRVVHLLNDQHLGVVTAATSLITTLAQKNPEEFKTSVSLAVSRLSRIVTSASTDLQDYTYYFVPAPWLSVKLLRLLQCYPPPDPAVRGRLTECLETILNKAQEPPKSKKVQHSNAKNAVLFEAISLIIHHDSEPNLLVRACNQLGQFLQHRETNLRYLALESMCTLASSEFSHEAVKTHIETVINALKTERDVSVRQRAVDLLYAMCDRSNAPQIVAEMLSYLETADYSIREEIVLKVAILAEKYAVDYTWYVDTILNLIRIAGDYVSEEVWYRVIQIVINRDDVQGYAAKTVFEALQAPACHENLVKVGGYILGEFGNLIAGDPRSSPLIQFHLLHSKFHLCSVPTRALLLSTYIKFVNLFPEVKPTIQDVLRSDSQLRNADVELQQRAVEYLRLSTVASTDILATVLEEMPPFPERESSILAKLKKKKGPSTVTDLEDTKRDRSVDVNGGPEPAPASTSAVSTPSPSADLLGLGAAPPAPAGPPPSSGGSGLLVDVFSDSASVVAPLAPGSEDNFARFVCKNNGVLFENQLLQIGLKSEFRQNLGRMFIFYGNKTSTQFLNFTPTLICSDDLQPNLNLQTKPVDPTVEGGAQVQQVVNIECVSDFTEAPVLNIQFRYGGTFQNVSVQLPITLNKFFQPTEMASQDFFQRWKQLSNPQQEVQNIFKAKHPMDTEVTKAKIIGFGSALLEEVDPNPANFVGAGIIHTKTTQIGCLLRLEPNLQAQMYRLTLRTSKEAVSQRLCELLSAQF
UniProt Q8IZ07: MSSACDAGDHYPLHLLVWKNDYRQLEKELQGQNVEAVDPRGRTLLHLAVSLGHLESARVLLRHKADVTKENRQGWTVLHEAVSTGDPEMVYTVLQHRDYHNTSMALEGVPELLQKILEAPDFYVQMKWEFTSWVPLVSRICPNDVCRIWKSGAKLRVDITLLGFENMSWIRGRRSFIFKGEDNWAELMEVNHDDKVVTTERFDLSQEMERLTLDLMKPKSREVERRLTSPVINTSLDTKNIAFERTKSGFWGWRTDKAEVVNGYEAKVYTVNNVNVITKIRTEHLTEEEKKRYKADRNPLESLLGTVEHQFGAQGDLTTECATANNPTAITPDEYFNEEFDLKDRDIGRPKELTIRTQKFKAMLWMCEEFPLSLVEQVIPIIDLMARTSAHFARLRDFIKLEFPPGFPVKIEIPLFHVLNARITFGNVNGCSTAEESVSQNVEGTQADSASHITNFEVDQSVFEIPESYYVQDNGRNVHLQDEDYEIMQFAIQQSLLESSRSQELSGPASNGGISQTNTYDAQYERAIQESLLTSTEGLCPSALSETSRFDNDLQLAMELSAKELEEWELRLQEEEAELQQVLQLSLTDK
UniProt P19801: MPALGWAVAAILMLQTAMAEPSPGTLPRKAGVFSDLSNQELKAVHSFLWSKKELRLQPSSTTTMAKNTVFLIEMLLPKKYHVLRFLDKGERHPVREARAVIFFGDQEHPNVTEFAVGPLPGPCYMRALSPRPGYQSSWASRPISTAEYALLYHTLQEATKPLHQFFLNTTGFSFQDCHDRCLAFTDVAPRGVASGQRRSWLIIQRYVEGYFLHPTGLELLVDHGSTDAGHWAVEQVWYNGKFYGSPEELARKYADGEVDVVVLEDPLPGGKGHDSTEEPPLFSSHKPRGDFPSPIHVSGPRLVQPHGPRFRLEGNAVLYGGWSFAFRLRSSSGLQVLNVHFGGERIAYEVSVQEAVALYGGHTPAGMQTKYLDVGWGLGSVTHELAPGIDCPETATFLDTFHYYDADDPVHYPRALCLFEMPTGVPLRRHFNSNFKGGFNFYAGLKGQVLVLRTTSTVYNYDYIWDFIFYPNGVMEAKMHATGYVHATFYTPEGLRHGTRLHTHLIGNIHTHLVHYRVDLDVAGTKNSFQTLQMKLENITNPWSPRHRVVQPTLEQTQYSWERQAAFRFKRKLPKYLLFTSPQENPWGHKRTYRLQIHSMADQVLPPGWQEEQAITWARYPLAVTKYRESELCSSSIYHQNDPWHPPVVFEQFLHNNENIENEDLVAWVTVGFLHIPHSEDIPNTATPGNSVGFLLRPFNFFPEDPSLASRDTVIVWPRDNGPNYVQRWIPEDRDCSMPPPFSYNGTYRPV
UniProt Q8IV38: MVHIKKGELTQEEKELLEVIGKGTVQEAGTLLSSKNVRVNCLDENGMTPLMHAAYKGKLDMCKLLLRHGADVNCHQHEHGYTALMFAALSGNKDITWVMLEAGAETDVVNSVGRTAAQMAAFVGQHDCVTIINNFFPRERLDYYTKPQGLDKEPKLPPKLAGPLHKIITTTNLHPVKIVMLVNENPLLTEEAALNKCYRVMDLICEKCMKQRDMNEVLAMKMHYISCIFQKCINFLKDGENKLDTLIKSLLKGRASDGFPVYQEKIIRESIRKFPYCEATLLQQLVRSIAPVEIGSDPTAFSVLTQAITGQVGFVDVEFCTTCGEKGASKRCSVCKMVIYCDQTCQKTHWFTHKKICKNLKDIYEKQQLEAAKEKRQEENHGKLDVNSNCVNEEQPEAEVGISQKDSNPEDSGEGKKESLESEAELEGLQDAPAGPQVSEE

Compound: CC1Cc2ccccc2N1C(=O)C1CCCN(C1)C(=O)CCl (mixture of isomers) [TRIM25 ligand 11 (diastereomer mixture)]
Assay: probe-labelled cysteine peptide fold change vs DMSO (competition) (log2 fold change); higher = less target engagement (more negative = stronger competition)
Details: THP-1, incubation time: 4 h
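Note: competitive chemoproteomic profiling in live THP-1 cells with an iodoacetamide desthiobiotin (IA-DTB) probe, comparing probe-labelled peptide intensities in compound-treated cells against DMSO-treated controls.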

| Target | probe-labelled cysteine peptide fold change (10 µM) | probe-labelled cysteine peptide fold change (50 µM) |
| --- | --- | --- |
| AP2B1_P63010_95_DCEDPNPLIR (UniProt P63010) | 0.00497 | 0.155 |
| AP2B1_P63010_241_EAQSICER (UniProt P63010) | -0.0689 | -0.153 |
| AP2M1_Q96CW1_246_QSIAIDDCTFHQCVR (UniProt Q96CW1) | -0.00235 | -0.0137 |
| ANO6_Q4KMQ2_105_QAYESNLICHGLQLEATR (UniProt Q4KMQ2) | -0.0838 | -0.0162 |
| ANXA4_P09525_315_VLLVLCGGDD (UniProt P09525) | 0.177 | 0.081 |
| AP4B1_Q9Y6B7_298_ELCFVALCHVR (UniProt Q9Y6B7) | 0.0465 | 0.0303 |
| ANXA2_P07355_262_EVKGDLENAFLNLVQCIQNK (UniProt P07355) | -0.331 | 0.00394 |
| ANKRD27_Q96NW4_795_CLLDSNAKPNKK (UniProt Q96NW4) | -0.201 | -0.0885 |
| AP2A2_O94973_932_LCELLSAQF (UniProt O94973) | -0.0269 | 0.118 |
| ANKRD27_Q96NW4_795_CLLDSNAK (UniProt Q96NW4) | -0.0492 | -0.0447 |
| ANKRD13A_Q8IZ07_5_SSACDAGDHYPLHLLVWK (UniProt Q8IZ07) | 0.0841 | -0.175 |
| AOC1_P19801_181_CLAFTDVAPR (UniProt P19801) | -0.0221 | 0.017 |
| ANKLE2_Q86XL3_702_NGLCHPLNHSR (UniProt Q86XL3) | -0.309 | -0.396 |
| ANKMY2_Q8IV38_74_HGADVNCHQHEHGYTALMFAALSGNK (UniProt Q8IV38) | 0.0837 | 0.376 |
| APEX1_P27695_208_KPLVLCGDLNVAHEEIDLRNPK (UniProt P27695) | -0.279 | -0.0808 |

Some of the entries so far, bar-delimited:
Target | probe-labelled cysteine peptide fold change (10 µM) | probe-labelled cysteine peptide fold change (50 µM)
AP2M1_Q96CW1_246_QSIAIDDCTFHQCVR (UniProt Q96CW1) | -0.00235 | -0.0137
ANXA2_P07355_262_EVKGDLENAFLNLVQCIQNK (UniProt P07355) | -0.331 | 0.00394
